Source: PubChem BioAssay AID504793 (Drosophila RNAi Screening Center, 2011)
The deposit covers about 23,000 reagents; below is an unselected part of those with a known target gene and a result. Of all reagents, 62 (0.27%) are marked active. 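Calls come from follow-up tests whose scores are not deposited, so confirmed genes may have low counts here; counts are not normalised per plate.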 Raw values vary from plate to plate and are shown uncorrected. The numbers tell different reagents against one gene apart. A plus sign joins genes that one reagent is predicted to hit. No sequences are given here.

Assay: 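Whole-genome screen for parts of the DNA damage checkpoint at G2/M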 (primary screen)
System: Drosophila S2R+ cells
Reagents: long dsRNA against Drosophila genes, about 0.25 µg dsRNA per well
Time to read-out: 4 days of dsRNA, then 4 hours of drug before read-out
Conditions: doxorubicin 0.5 µM for 4 hours to cause double-strand breaks, in cells also given a low, harmless dose of dsRNA against nbs to sensitise the assay
Measurement: 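Mitotic index as the number of phospho-histone H3-positive cells in each well following doxorubicin, given as raw counts without normalisation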
Scale: mitotic cells: higher = more cells in mitosis, weaker G2 arrest
Call rule: 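a call needs confirmation in secondary tests, with other dsRNAs and a check of mitotic timing without damage, not just a high primary count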
Calls: active = confirmed in follow-up tests; inactive = not confirmed

The first 2 records, to show the layout:
Gene	reagent	mitotic cells, replicate 1	mitotic cells, replicate 2	activity call
CG13694	1	2		inactive
mRRF1 (mitochondrial ribosome recycling factor 1)	1	6		inactive

Main list, from the start:
Gene	reagent	mitotic cells, replicate 1	mitotic cells, replicate 2	activity call
CG13694	1	2		inactive
mRRF1 (mitochondrial ribosome recycling factor 1)	1	6		inactive
yellow-g	1	7		inactive
CG43737	1	6		inactive
CG12093	1	5		inactive
CG18599	1	5		inactive
CG18599	2	5		inactive
Fbxl7 (F-box and leucine-rich repeat protein 7)	1	4		inactive
Fbxl7 (F-box and leucine-rich repeat protein 7)	2	7		inactive
CheB93a (Chemosensory protein B 93a)	1	6		inactive
CG4757	1	6		inactive
CG32835 (retired record)	1	12		inactive
CG32835 (retired record)	2	4		inactive
Trx2 (Thioredoxin 2)	1	4		inactive
Trx2 (Thioredoxin 2)	2	7		inactive
bowl	1	10		inactive
bowl	2	3		inactive
dpr19 (defective proboscis extension response 19)	1	6		inactive
Fpgs2 (Folylpolyglutamate synthase 2)	1	5		inactive
Oct-TyrR (Octopamine-Tyramine receptor)	1	3		inactive
KdelR (KDEL receptor)	1	3		inactive
CG31538	1	7		inactive
Tip60 (Tat interactive protein 60kDa)	1	8		inactive
Grx1t (Glutaredoxin 1, testis-specific)	1	6		inactive
Grx1t (Glutaredoxin 1, testis-specific)	2	1		inactive
Sec63 (Secretory 63)	1	4	11	inactive
mtTFB2 (mitochondrial transcription factor B2)	1	1		inactive
CG32371	1	9		inactive
CG32371	2	8		inactive
tna (tonalli)	1	9		inactive
tna (tonalli)	2	8		inactive
CG5805	1	5		inactive
CG5805	2	5		inactive
obst-F (obstructor-F)	1	7		inactive
obst-F (obstructor-F)	2	2		inactive
synr (sayonara)	1	10		inactive
CG12926	1	13		inactive
CG12926	2	6		inactive
Ir94f (Ionotropic receptor 94f)	1	6		inactive
CG10555	1	8		inactive
CG10555	2	12		inactive
CG9205	1	8		inactive
PGAP2 (Post-GPI attachment to proteins 2)	1	5		inactive
PGAP2 (Post-GPI attachment to proteins 2)	2	8		inactive
E(spl)m3-HLH (Enhancer of split m3, helix-loop-helix)	1	8		inactive
E(spl)m3-HLH (Enhancer of split m3, helix-loop-helix)	2	3		inactive
sty (sprouty)	1	11		inactive
sty (sprouty)	2	4		inactive
CG13747	1	5		inactive
CG31674	1	11		inactive
CG31674	2	8		inactive
Rh50	1	1		inactive
CG9826	1	3		inactive
ste24c + CG30461	1	2		inactive
ste24c + CG30461	2	6		inactive
CG2218	1	8		inactive
CG2218	2	7		inactive
trpl (transient receptor potential-like)	1	9		inactive
trpl (transient receptor potential-like)	2	7		inactive
trpl (transient receptor potential-like)	3	3		inactive
ND-B16.6 (NADH dehydrogenase (ubiquinone) B16.6 subunit)	1	12		inactive
ND-B16.6 (NADH dehydrogenase (ubiquinone) B16.6 subunit)	2	13		inactive
ND-B16.6 (NADH dehydrogenase (ubiquinone) B16.6 subunit)	3	6		inactive
EMRE (Essential MCU regulator)	1	2		inactive
CG4199	1	5		inactive
CG4199	2	17		inactive
CG4199	3	6		inactive
rogdi	1	7		inactive
CG33221 (retired record)	1	5	9	inactive
CG17283	1	11		inactive
CG17816	1	5	13	inactive
CG17816	2	12		inactive
rt (rotated abdomen)	1	5		inactive
Npc2b (Niemann-Pick type C-2b)	1	2		inactive
eIF2alpha (eukaryotic translation initiation factor 2 subunit alpha)	1	3		inactive
